From patent US20240400542A1 (University of Virginia Patent Foundation, priority 2021, published 2024)

Tested on: Jurkat cells
Assay: Live cell chemical proteomics, LC-MS/MS identification of KY-26-modified sites
Assay type: cell-based, human
Details: live cell treatment 12.5 μM, 2 hr

C#CCNC(=O)c1cc(Nc2cc(C3CC3)[nH]n2)nc(N2CCN(C(=O)c3ccc(S(=O)(=O)n4cnc(-c5ccccc5)n4)cc3)CC2)n1 [KY-26, 6-((5-cyclopropyl-1H-pyrazol-3-yl)amino)-2-(4-(4-((3-phenyl-1H-1,2,4-triazol-1-yl)sulfonyl)benzoyl)piperazin-1-yl)-N-(prop-2-yn-1-yl)pyrimidine-4-carboxamide]
number of probe-modified peptides with assigned KY-26 modification (HCD and ETD, trypsin and chymotrypsin): > 65
target site assignments of probe-modified peptides, HCD alone (tryptic digests): 35
target site assignments of probe-modified peptides, HCD/ETD (tryptic digests): 51
